The list does not hold the whole screen: it gathers tests that were run many times, whatever their T/C, doses with no T/C, and many T/C values between a quarter and a half above the control. Other doses and runs of a compound stand elsewhere. T/C is the treated group as % of the vehicle group. Some doses have a count of surviving animals in place of a T/C: the source files T/C as zero there, which appears to mark a toxic dose or a test without result, not a measured value. Some survivor counts are full or nearly so, which does not show that the dose was tolerated: survival well below the control is almost never listed, so the zero probably covers shortened survival too. Survivors were counted at the toxicity check, usually on the fifth day, unless a day is given; later deaths do not show. Schedules are NCI's codes, read here as Q, the interval in days (D) or hours (H), X, the number of doses. Where survival is the endpoint, this PubChem deposit counts one and a half times the control or more as active, and values a quarter to a half above the control carry no call in these data; other NCI protocols may use other cut-offs. Some doses were run more than once; the results are listed from low to high. Signs of the kind (2×) stand for listed records that agree. Some schedule codes hold Z or #, which are not explained here. Some T/C values carry the count of animals alive at the toxicity check (mostly the fifth day); without a count, all were alive then.

This experiment deals with L1210 leukemia ip in BDF1 mice, survival T/C. In words: NCI In Vivo Anticancer Drug Screen. Data for tumor model L1210 Leukemia (intraperitoneal) in B6D2F1 (BDF1) mice. To be noted: T/C endpoint: mean survival time, higher T/C = longer survival.
Where [1] appears, read: dose: 51.75 mg/kg/injection, schedule: Q02DX010 (ip), vehicle: carboxymethylcellulose (CMC).
[2] abbreviates: dose: 400.0 mg/kg/injection, schedule: Q01DX001 (ip), vehicle: saline.

For `NC(=S)N/N=C/c1ccccn1`, the T/C reads like this: (dose: 2.6 mg/kg/injection, schedule: Q01DX Z (ip), vehicle: carboxymethylcellulose (CMC)) 125 % of control; (dose: 2.6 mg/kg/injection, schedule: Q03HX024 (ip), vehicle: other) 137 % of control; (dose: 2.6 mg/kg/injection, schedule: Q03HX032 (ip), vehicle: other) 147 % of control; (dose: 3.7 mg/kg/injection, schedule: Q01DX009 (ip), vehicle: saline with Tween-80) 127 and 132 % of control; (dose: 3.8 mg/kg/injection, schedule: Q01DX009 (ip), vehicle: saline with Tween-80) 134 % of control; (dose: 4.0 mg/kg/injection, schedule: Q03HX032 (ip), vehicle: other) 215, 260, 262, 342 % of control. Besides, the T/C was 148 % of control (dose: 4.4 mg/kg/injection, schedule: Q01DX009 (ip), vehicle: other); 145 % of control (dose: 5.3 mg/kg/injection, schedule: Q01DX Z (ip), vehicle: carboxymethylcellulose (CMC)); 145 % of control (dose: 6.0 mg/kg/injection, schedule: Q03HX024 (ip), vehicle: other); 364 [9 of 10 alive], 368, 373 [8 of 9 alive], 447 % of control (dose: 6.0 mg/kg/injection, schedule: Q03HX032 (ip), vehicle: other); 125 % of control (dose: 6.5 mg/kg/injection, schedule: Q02DX010 (ip), vehicle: carboxymethylcellulose (CMC)); 129 % of control (dose: 6.6 mg/kg/injection, schedule: Q02DX010 (ip), vehicle: carboxymethylcellulose (CMC)). Also, the T/C (dose: 6.7 mg/kg/injection, schedule: Q01DX009 (ip), vehicle: other) was 147 % of control; the T/C (dose: 6.7 mg/kg/injection, schedule: Q01DX009 (ip), vehicle: saline) was 133 % of control [5 of 6 alive]; the T/C (dose: 7.5 mg/kg/injection, schedule: Q01DX009 (ip), vehicle: saline with Tween-80) was 140, 144, 146, 165 % of control; the T/C (dose: 9.89 mg/kg/injection, schedule: Q02DX010 (ip), vehicle: carboxymethylcellulose (CMC)) was 119 (2×), 123, 130, 132, 134 % of control; the T/C (dose: 10.0 mg/kg/injection, schedule: Q02DX010 (ip), vehicle: carboxymethylcellulose (CMC)) is 125 and 127 % of control; the T/C (dose: 10.0 mg/kg/injection, schedule: Q03HX032 (ip), vehicle: other) is 132 % of control [7 of 10 alive]. Moreover, the T/C was 150, 160, 173, 175 % of control (dose: 15.0 mg/kg/injection, schedule: Q01DX009 (ip), vehicle: saline with Tween-80); 127 % of control [9 of 10 alive] (dose: 15.0 mg/kg/injection, schedule: Q01DX015 (ip), vehicle: other); 109, 116, 120, 124, 132, 150 % of control (dose: 15.4 mg/kg/injection, schedule: Q02DX010 (ip), vehicle: carboxymethylcellulose (CMC)); 136 % of control [9 of 10 alive] (dose: 22.5 mg/kg/injection, schedule: Q01DX009 (ip), vehicle: other); 134 % of control (dose: 22.5 mg/kg/injection, schedule: Q02DX010 (ip), vehicle: carboxymethylcellulose (CMC)); 84, 86, 98, 107, 125, 127 % of control (dose: 23.0 mg/kg/injection, schedule: Q02DX010 (ip), vehicle: carboxymethylcellulose (CMC)). The T/C runs as follows: (dose: 34.5 mg/kg/injection, schedule: Q02DX010 (ip), vehicle: carboxymethylcellulose (CMC)) 65, 80, 89, 90, 112, 122 % of control; under setting [1], 75, 89, 113 % of control. The survivor count (dose: 2.6 mg/kg/injection, schedule: Q03HX024 (ip), vehicle: carboxymethylcellulose (CMC)) is reported as 9 of 10; the survivor count (dose: 6.0 mg/kg/injection, schedule: Q03HX024 (ip), vehicle: carboxymethylcellulose (CMC)) is 10 of 10; the survivor count (dose: 8.0 mg/kg/injection, schedule: Q03HX008 (ip), vehicle: other) is given as 5 of 10; the survivor count (dose: 8.0 mg/kg/injection, schedule: Q03HX016 (ip), vehicle: other) is listed as 5 of 10; the survivor count (dose: 8.0 mg/kg/injection, schedule: Q03HX024 (ip), vehicle: other) is listed as 7 of 10; the survivor count (dose: 9.0 mg/kg/injection, schedule: Q03HX024 (ip), vehicle: carboxymethylcellulose (CMC)) is listed as 3 of 10. Besides, the survivor count reads like this: (dose: 9.0 mg/kg/injection, schedule: Q03HX024 (ip), vehicle: other) 4 of 10; (dose: 11.0 mg/kg/injection, schedule: Q01DX015 (ip), vehicle: saline) 4 of 6; (dose: 12.0 mg/kg/injection, schedule: Q03HX008 (ip), vehicle: other) 0 of 10; (dose: 12.0 mg/kg/injection, schedule: Q03HX016 (ip), vehicle: other) 1 of 10; (dose: 12.0 mg/kg/injection, schedule: Q03HX024 (ip), vehicle: other) 1 of 10; (dose: 18.0 mg/kg/injection, schedule: Q03HX008 (ip), vehicle: other) 0 of 10. Further, the survivor count (dose: 18.0 mg/kg/injection, schedule: Q03HX016 (ip), vehicle: other) is listed as 0 of 10; the survivor count (dose: 18.0 mg/kg/injection, schedule: Q03HX024 (ip), vehicle: other) is on record as 0 of 10; the survivor count (dose: 22.5 mg/kg/injection, schedule: Q01DX015 (ip), vehicle: other) was 9 of 10; the survivor count (dose: 30.0 mg/kg/injection, schedule: Q01DX009 (ip), vehicle: saline with Tween-80) is listed as 2 of 3; the survivor count (dose: 37.5 mg/kg/injection, schedule: Q01DX015 (ip), vehicle: saline) was 1 of 6; the survivor count (dose: 50.0 mg/kg/injection, schedule: Q01DX001 (ip), vehicle: other) is given as 5 of 10. For the same compound, the survivor count was 6 of 6 under setting [1] and 2 of 10 (dose: 74.0 mg/kg/injection, schedule: Q01DX001 (ip), vehicle: other).
As to `CSc1nc(N)nc2c1nnn2C1OC(CO)C(O)C1O` (configuration not stated), the survivor count under setting [2] is 1 of 6.
`NC(C(=O)O)c1ccc(F)cc1` (configuration not stated): the survivor count under setting [2] was 0 of 4.
As to `CCC1(O)CC2c3ccccc3CCN2CC1CC(C)C` (configuration not stated), the survivor count runs as follows: (dose: 200.0 mg/kg/injection, schedule: Q01DX009 (ip), vehicle: Klucel (hydroxypropylcellulose) (HPC)) 0 of 6; (dose: 400.0 mg/kg/injection, schedule: Q04DX003 (ip), vehicle: Klucel (hydroxypropylcellulose) (HPC)) 0 of 4.
Consider `CCOC(=O)C[n+]1ccccc1/C=C/c1ccc(O)cc1`, for which the survivor count is on record as 0 of 6 (dose: 18.75 mg/kg/injection, schedule: Q01DX001 (ip), vehicle: other) and 0 of 6 (dose: 37.5 mg/kg/injection, schedule: Q01DX001 (ip), vehicle: other).
Consider `COc1ccc(CN(CCN(C)C)c2ccccn2)cc1`, for which the survivor count runs as follows: (dose: 100.0 mg/kg/injection, schedule: Q04DX003 (ip), vehicle: Klucel (hydroxypropylcellulose) (HPC)) 1 of 6; (dose: 200.0 mg/kg/injection, schedule: Q04DX003 (ip), vehicle: Klucel (hydroxypropylcellulose) (HPC)) 0 of 6.
Take `CCC1(CC)COC(C)(C(=O)O)OC1`: for the setting “dose: 400.0 mg/kg/injection, schedule: Q01DX009 (ip), vehicle: saline with Tween-80”, the survivor count is 0 of 6.
Regarding `CCCCC(=O)N1CCCCCC1`, for the setting “dose: 400.0 mg/kg/injection, schedule: Q04DX002 (ip), vehicle: saline with Tween-80”, the survivor count is listed as 1 of 3.
Turning to `CCN(CC)CCCOP(=O)(N(CC)CC)N(CCCl)CCCl` (configuration not stated), the survivor count is, setting by setting: (dose: 300.0 mg/kg/injection, schedule: Q01DX001 (ip), vehicle: saline with Tween-80) 0 of 6; (dose: 450.0 mg/kg/injection, schedule: Q01DX001 (ip), vehicle: saline with Tween-80) 0 of 6.
Turning to `CCCCCCCCCCCC(=O)OCC1OC2C(Oc3nc(=N)ccn32)C1OC(=O)CCCCCCCCCCC` (configuration not stated), where the note is “dose: 6.25 mg/kg/injection, schedule: Q01DX009 (ip), vehicle: water”, the T/C is 139 % of control. The survivor count (dose: 100.0 mg/kg/injection, schedule: Q01DX009 (ip), vehicle: water) is recorded as 6 of 6.
For the compound `CCCCCCC[n+]1ccc(C(=O)c2ccccc2)cc1`, where the note is “dose: 150.0 mg/kg/injection, schedule: Q01DX001 (ip), vehicle: carboxymethylcellulose (CMC)”, the survivor count was 1 of 6.
Turning to `C=CS(=O)(=O)CCOc1ccc(Cl)cc1Cl`, for the setting “dose: 400.0 mg/kg/injection, schedule: Q01DX009 (ip), vehicle: Klucel (hydroxypropylcellulose) (HPC)”, the survivor count is listed as 2 of 6.
